No constants are given. Whether binding was seen depends on the method and setting. In cells and extracts the contact can be indirect. A yes stands for co-enrichment or nearness to the bait. Other partners may have been found.
Molecular target: PARP1 (poly (ADP-ribose) polymerase 1) (human (endogenous in PC3)) (UniProt P09874)
Experiment: affinity purification with mass spectrometry; IP from nuclear protein extracts of PC3 cells, immunoprecipitated proteins analysed by MS, compared with a control group

Amino acid sequences for entries named in this document (tags omitted).
UniProt P09874: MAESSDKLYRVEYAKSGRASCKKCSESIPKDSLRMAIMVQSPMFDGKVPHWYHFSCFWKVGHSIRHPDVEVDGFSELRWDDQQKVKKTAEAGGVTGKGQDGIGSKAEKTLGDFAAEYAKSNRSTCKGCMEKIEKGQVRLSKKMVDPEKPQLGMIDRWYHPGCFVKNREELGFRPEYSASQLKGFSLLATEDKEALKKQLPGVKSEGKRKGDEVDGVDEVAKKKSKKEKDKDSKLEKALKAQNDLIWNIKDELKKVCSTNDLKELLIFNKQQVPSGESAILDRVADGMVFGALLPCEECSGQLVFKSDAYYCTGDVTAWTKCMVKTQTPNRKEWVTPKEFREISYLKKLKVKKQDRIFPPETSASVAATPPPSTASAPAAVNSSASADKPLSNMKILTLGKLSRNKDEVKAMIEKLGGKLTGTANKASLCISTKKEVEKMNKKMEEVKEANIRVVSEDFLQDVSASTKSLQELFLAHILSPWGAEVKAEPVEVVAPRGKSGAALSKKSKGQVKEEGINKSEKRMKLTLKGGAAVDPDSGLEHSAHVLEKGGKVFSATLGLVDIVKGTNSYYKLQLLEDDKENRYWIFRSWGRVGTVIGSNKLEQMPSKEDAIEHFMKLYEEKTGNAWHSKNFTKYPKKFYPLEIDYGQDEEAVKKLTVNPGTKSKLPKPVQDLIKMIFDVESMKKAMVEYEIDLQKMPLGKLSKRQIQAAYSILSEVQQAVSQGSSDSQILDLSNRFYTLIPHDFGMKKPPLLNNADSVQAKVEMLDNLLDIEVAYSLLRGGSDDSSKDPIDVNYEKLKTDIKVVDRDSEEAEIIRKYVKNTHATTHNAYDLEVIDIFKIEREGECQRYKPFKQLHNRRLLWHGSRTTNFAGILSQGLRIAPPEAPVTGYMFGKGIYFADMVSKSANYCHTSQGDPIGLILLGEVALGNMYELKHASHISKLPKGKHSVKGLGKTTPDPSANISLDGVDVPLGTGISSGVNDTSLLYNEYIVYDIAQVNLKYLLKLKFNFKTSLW
UniProt P08238: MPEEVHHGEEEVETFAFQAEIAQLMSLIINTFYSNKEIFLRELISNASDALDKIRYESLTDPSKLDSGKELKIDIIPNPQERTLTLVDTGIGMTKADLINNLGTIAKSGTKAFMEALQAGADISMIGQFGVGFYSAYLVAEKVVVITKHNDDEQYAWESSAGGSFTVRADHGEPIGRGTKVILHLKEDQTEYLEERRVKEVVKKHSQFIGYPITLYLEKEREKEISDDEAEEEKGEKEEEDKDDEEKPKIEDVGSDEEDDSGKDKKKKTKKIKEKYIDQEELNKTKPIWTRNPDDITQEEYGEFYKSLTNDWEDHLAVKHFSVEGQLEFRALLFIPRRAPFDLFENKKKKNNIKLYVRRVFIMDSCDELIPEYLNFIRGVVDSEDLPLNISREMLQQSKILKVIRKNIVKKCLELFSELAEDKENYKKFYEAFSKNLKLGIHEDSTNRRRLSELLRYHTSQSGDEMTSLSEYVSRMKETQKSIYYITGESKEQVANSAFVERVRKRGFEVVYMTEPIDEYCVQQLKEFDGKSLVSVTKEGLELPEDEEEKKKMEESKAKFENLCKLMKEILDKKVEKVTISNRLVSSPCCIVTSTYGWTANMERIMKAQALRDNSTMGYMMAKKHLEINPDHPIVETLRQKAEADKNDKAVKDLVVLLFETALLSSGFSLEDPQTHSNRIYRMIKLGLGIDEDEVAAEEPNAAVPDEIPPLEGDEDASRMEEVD

With “HSP90AB1 (heat shock protein alpha family class B) (from UniProt P08238 1-724)” the binding was “binds”.
